Among the data in publication PMC4104027 are binding values, retold here.

By UniProt entry, the sequences of proteins in these tests, tags left out.
UniProt Q9UNE7: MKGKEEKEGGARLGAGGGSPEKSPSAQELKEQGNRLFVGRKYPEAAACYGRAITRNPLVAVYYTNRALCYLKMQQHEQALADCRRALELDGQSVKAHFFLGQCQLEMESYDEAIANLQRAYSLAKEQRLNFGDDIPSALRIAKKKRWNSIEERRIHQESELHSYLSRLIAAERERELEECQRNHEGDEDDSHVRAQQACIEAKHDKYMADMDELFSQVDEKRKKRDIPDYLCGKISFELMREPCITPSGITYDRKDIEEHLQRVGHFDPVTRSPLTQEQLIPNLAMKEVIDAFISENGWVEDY
UniProt Q7Z6Z7: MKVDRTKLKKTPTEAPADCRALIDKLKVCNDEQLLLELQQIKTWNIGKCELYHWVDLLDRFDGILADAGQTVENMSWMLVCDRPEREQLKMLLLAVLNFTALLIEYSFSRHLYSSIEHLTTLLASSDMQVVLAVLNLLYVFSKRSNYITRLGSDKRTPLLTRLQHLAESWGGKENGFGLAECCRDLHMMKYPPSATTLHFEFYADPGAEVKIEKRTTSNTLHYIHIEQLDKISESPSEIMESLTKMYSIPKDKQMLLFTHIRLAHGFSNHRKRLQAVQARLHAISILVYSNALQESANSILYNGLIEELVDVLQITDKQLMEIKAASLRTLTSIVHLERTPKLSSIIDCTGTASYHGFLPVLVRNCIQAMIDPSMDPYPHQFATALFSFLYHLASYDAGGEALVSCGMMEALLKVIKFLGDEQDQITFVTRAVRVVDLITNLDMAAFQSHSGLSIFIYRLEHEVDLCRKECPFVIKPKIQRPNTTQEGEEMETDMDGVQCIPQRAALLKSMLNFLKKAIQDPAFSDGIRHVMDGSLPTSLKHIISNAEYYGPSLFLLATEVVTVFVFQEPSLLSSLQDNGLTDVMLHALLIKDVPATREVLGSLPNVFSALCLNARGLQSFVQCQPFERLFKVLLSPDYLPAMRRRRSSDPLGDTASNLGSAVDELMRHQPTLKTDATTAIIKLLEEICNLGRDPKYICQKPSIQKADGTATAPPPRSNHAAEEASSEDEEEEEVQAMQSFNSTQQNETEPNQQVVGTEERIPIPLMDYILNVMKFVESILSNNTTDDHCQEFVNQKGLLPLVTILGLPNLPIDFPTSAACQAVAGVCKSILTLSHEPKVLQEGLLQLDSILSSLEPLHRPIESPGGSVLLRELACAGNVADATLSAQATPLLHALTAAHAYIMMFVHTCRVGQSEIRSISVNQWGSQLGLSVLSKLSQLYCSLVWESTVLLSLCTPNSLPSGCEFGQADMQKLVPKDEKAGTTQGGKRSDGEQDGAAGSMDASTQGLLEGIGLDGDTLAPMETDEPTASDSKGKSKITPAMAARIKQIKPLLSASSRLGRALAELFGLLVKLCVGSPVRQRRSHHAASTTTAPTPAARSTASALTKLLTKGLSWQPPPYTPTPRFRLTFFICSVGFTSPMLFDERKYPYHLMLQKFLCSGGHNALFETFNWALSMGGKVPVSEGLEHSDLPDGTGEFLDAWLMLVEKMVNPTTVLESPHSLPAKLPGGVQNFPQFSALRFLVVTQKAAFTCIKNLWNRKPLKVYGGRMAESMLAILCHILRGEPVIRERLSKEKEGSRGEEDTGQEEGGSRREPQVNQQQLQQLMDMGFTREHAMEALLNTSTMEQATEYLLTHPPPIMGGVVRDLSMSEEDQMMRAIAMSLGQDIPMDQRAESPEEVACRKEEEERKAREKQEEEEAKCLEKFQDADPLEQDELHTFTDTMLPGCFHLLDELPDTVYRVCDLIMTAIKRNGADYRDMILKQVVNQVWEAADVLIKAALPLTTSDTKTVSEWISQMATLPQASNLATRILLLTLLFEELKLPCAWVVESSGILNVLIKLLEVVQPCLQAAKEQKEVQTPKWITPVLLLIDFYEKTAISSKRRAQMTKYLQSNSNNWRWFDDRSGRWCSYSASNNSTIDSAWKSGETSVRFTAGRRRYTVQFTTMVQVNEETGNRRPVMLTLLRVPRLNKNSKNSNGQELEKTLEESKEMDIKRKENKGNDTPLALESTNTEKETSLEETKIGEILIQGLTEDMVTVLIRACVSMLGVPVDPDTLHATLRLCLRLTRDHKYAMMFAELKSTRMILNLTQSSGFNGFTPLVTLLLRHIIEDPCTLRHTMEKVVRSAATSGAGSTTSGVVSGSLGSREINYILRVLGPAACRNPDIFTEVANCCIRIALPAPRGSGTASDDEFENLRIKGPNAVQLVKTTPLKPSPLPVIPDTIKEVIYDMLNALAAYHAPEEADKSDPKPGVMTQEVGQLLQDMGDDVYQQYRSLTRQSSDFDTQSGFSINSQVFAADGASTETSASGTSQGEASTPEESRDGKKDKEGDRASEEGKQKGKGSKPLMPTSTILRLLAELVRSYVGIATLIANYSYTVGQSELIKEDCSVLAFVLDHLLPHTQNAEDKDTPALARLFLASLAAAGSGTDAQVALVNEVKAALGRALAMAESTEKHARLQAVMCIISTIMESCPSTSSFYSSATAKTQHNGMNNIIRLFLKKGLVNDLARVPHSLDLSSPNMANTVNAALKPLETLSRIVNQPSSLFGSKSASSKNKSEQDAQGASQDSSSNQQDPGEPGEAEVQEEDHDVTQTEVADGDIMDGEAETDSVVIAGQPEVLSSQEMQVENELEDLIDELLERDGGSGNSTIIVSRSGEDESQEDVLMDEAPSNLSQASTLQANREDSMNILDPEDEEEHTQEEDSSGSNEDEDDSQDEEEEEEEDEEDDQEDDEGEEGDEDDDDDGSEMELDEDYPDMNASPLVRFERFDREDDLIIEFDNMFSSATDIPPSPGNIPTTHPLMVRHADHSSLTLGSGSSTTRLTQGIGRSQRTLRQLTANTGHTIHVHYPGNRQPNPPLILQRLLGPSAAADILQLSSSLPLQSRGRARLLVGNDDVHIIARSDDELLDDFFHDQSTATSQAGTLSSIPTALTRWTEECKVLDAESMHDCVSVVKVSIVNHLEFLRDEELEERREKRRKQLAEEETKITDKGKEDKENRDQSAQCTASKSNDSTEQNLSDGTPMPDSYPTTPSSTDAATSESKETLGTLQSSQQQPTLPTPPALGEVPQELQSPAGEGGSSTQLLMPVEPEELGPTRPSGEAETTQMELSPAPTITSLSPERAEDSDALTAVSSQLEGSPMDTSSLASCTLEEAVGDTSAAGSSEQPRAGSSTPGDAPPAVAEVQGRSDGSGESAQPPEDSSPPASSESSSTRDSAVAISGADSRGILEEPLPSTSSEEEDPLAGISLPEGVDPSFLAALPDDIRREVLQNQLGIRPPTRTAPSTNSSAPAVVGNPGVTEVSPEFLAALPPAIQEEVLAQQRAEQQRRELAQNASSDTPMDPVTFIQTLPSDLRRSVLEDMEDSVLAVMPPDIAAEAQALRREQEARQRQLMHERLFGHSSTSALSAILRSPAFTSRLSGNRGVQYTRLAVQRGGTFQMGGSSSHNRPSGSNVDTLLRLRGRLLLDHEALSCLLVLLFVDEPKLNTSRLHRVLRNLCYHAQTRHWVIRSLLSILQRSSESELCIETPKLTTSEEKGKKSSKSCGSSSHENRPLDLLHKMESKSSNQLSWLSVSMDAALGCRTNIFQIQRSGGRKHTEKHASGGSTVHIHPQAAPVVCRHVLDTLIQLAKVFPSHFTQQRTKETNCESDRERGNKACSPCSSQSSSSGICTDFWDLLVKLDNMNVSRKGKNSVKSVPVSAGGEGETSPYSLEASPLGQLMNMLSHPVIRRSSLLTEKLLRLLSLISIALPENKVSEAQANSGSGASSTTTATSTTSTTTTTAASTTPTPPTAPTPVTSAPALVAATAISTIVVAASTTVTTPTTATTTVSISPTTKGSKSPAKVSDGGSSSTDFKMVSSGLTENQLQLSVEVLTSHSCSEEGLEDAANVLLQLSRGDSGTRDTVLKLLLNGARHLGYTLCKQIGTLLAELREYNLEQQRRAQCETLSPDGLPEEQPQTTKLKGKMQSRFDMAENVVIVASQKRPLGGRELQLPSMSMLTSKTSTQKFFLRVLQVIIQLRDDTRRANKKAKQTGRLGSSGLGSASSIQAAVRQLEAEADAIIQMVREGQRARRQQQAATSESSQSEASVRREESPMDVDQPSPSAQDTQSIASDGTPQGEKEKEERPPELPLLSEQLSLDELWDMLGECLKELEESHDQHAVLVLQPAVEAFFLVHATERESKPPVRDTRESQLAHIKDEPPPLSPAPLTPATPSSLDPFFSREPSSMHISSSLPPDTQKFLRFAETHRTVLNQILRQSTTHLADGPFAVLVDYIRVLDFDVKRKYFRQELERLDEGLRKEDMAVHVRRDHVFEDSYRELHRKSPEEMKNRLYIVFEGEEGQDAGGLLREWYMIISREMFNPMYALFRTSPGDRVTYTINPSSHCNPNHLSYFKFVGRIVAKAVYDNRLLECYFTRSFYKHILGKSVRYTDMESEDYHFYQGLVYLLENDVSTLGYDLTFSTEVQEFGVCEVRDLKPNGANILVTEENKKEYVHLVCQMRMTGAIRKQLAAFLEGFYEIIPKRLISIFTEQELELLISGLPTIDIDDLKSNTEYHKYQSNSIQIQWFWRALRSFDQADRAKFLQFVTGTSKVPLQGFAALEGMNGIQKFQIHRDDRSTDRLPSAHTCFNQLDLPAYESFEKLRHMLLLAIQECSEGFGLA

Results are given in words; binding and its absence hold for the method and conditions named. Binding seen in cells or lysates may run through a third protein. Here binding means that the protein was enriched with, or labelled near, the bait; the list need not be complete.

The assay deals with FLAG-tagged Bag6 (UniProt P46379).

Turning to “CHIP (from UniProt Q9UNE7 1-303) (enzyme)”, the binding result was “binds”. With “HUWE1 (from UniProt Q7Z6Z7 1-4374) (enzyme)”, the binding entry is listed as “binds”.

B1: RNF123 (enzyme, UniProt Q5XPI4 1-1314)
chain: MASKGAGMSFSRKSYRLTSDAEKSRVTGIVQEKLLNDYLNRIFSSSEHAPPAATSRKPLNFQNLPEHLDQLLQVDNEEEESQGQVEGRLGPSTVVLDHTGGFEGLLLVDDDLLGVIGHSNFGTIRSTTCVYKGKWLYEVLISSQGLMQIGWCTISCRFNQEEGVGDTHNSYAYDGNRVRKWNVTTTNYGKAWAAGDIVSCLIDLDDGTLSFCLNGVSLGTAFENLSRGLGMAYFPAISLSFKESVAFNFGSRPLRYPVAGYRPLQDPPSADLVRAQRLLGCFRAVLSVELDPVEGRLLDKESSKWRLRGQPTVLLTLAHIFHHFAPLLRKVYLVEAVLMSFLLGIVEKGTPTQAQSVVHQVLDLLWLFMEDYEVQDCLKQLMMSLLRLYRFSPIVPDLGLQIHYLRLTIAILRHEKSRKFLLSNVLFDVLRSVVFFYIKSPLRVEEAGLQELIPTTWWPHCSSREGKESTEMKEETAEERLRRRAYERGCQRLRKRIEVVEELQVQILKLLLDNKDDNGGEASRYIFLTKFRKFLQENASGRGNMPMLCPPEYMVCFLHRLISALRYYWDEYKASNPHASFSEEAYIPPQVFYNGKVDYFDLQRLGGLLSHLRKTLKDDLASKANIVIDPLELQSTAMDDLDEDEEPAPAMAQRPMQALAVGGPLPLPRPGWLSSPTLGRANRFLSTAAVSLMTPRRPLSTSEKVKVRTLSVEQRTREDIEGSHWNEGLLLGRPPEEPEQPLTENSLLEVLDGAVMMYNLSVHQQLGKMVGVSDDVNEYAMALRDTEDKLRRCPKRRKDILAELTKSQKVFSEKLDHLSRRLAWVHATVYSQEKMLDIYWLLRVCLRTIEHGDRTGSLFAFMPEFYLSVAINSYSALKNYFGPVHSMEELPGYEETLTRLAAILAKHFADARIVGTDIRDSLMQALASYVCYPHSLRAVERIPEEQRIAMVRNLLAPYEQRPWAQTNWILVRLWRGCGFGYRYTRLPHLLKTKLEDANLPSLQKPCPSTLLQQHMADLLQQGPDVAPSFLNSVLNQLNWAFSEFIGMIQEIQQAAERLERNFVDSRQLKVCATCFDLSVSLLRVLEMTITLVPEIFLDWTRPTSEMLLRRLAQLLNQVLNRVTAERNLFDRVVTLRLPGLESVDHYPILVAVTGILVQLLVRGPASEREQATSVLLADPCFQLRSICYLLGQPEPPAPGTALPAPDRKRFSLQSYADYISADELAQVEQMLAHLTSASAQAAAASLPTSEEDLCPICYAHPISAVFQPCGHKSCKACINQHLMNNKDCFFCKTTIVSVEDWEKGANTSTTSSAA
Consider B1, for which the binding entry is “binds”.
